Among the data in US5416073A (The Adminstrators of the Tulane Educational Fund, priority 1985, dated 1995) are isolated mass values, retold here.

The nature of the series: general procedure: Boc solid-phase peptide synthesis; Benzhydrylamine polystyrene resin (Bachem). The following applies: whole synthesis.

HELM strings list residues between dots; [ac] is acetyl, [am] amide, other brackets name non-standard units.

As to “PEPTIDE1{H.[dA].D.A.I.F.T.N.S.Y.R.K.V.L.G.Q.L.S.A.R.K.L.L.Q.D.I.[Nle].S.R.[am]}$$$$V2.0”, the isolated mass (scale 0.25 mmole) is reported as 23 mg. “PEPTIDE1{Y.A.D.A.I.F.T.N.S.[dY].R.K.V.L.G.Q.L.S.A.R.K.L.L.Q.D.I.M.S.R.[am]}$$$$V2.0”: the isolated mass is given as 32 mg (scale 0.25 mmol, run 1) and 75 mg (scale 0.25 mmol, run 2).

“PEPTIDE1{Y.A.[dD].A.I.F.T.[dN].S.Y.R.K.V.L.G.Q.L.S.A.R.K.L.L.Q.D.I.[Nle].S.R.[am]}$$$$V2.0” showed an isolated mass (scale 0.25 mmole) of 114 mg. In the case of “PEPTIDE1{Y.[dA].D.A.I.F.T.N.S.Y.R.K.V.L.G.Q.L.S.A.R.K.L.L.Q.D.I.[Nle].S.R.[am]}$$$$V2.0”, the isolated mass (scale 0.25 mmole) was determined as 71 mg.

Under “scale 0.25 mmole”, “PEPTIDE1{Y.[dA].D.A.I.F.T.[dN].S.Y.R.K.V.L.G.Q.L.S.A.R.K.L.L.Q.D.I.[Nle].S.R.[am]}$$$$V2.0” displayed an isolated mass of 41 mg. On the same count and under the same terms, for “PEPTIDE1{Y.[dA].[dD].A.I.F.T.[dN].S.Y.R.K.V.L.G.Q.L.S.A.R.K.L.L.Q.D.I.[Nle].S.R.[am]}$$$$V2.0” the value was 67 mg.
